# Source: PubChem BioAssay AID1347423 (Functional Genomics Laboratory (NCATS/FGL), 2020)
# Out of some 52,000 sequences screened, about 210 (0.4%) were called active.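 How the source made its calls: active means gene whose silencing raises cell survival under the drug, median off-target-corrected z-score across its silencing RNAs 2 or more; inactive means the rest.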 The list shows a part of the results.
# Experiment: Resistance to Poly (ADP-Ribose) Polymerase inhibitor: Gene Identification via Genome-wide siRNA Screen
# Conditions: mouse BRCA2 R2336H ES cells, olaparib, CellTiter-Glo viability; stronger effect = higher value
# In short: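 Genome-wide siRNA screen (3 siRNAs/gene, 20 nM) in mouse ES cells carrying hypomorphic BRCA2 R2336H; olaparib 500 nM added 48 h post-transfection, CellTiter-Glo viability 72 h later. Normalized to plate-median negative control; MAD z-scores, gene median, seed-adjusted.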
row,Sequence,z-score
1,CCACUCUCUAGUCCUCAACTT against Svs3,inactive: 0.223
2,CCUUUCCAUCCCAGAAAAATT against Flj39647,inactive: 0.958
3,GGUAUUUGCUGAACUGUUUTT against Ckmt1,inactive: -0.979
4,GGUCUGGUGGAGUUGAGAATT against 2610001E17Rik,inactive: -0.26
5,GGAGGUGCUAAGGAGAAGATT against Plagl2,inactive: -0.779
6,GGAAAACUUGCUUACGCAUTT against Zfp146,inactive: 0.589
7,CCAUUGGUACUCUUUCCAATT against 3000002B06Rik,inactive: -0.588
8,GGUGAGACAAAGGAACAAGTT against 1810057C19Rik,inactive: 0.8
9,CCUUAAGCUAUCAAAUAAGTT against Zfp131,inactive: 0.753
10,GGAGAUUCUCCAUAACCUGTT against 2410006N06Rik,inactive: 2.37
11,GGGCUAAGGCAAAAACUGATT against LOC545554,inactive: -0.24
12,GGAAUAUCAGAAUACCAUCTT against 2610019P18Rik,inactive: 0.165
13,GGAAUGCUACUGCUCUCCUTT against P518,inactive: 1.63
14,CGGAUGUUCCAUUUGCUGATT against Sprr2g,inactive: -0.0898
15,CGUGUAGACUUUGAGACGUTT against BC037527,inactive: 2.48
16,CCUUAAAUGUGGACCAUAATT against A730069N07Rik,inactive: 1.68
17,GGUCAAGACACAGUUUAACTT against Tgifx1,inactive: 1.15
18,GGUGAAUAUUUCAAUGGCCTT against Klhdc4,inactive: 0.935
19,GGACUACUUCCCAAGAAUUTT against Gle1l,inactive: -0.349
20,GGGACAGUCUUCAGUGACATT against 0610037L13Rik,inactive: -2.25
21,GGCUAUUAUUGAGAGUUCATT against 8430437G11Rik,inactive: 0.104
22,GGCAGGAACUACCUCUUCATT against Sema5b,inactive: 0.335
23,GCGGGAAGCCUUUAUCUCUTT against Aanat,inactive: -0.477
24,GCUCAGUCAUGUCUUGUGCTT against Tagap,inactive: -1.14
25,GGACAAUUUAUUCCAGUUUTT against Dlx1,inactive: -1.95
26,GGUGAUCAAGGACAUUUAATT against Psma5,inactive: -1.27

row,Sequence,z-score
1,GGAAUUUUGCCAGCAAAUGTT against Edaradd,inactive: 0.247
2,GGAUGACUAGACAGGAAAATT against Ptma,inactive: 2.2
3,CCUGGAGUGAAGUACAAAUTT against Zfp458,inactive: 2.26
4,CGAGCCGUUAAACAGUUCUTT against BC065078,inactive: 0.717
5,CCCUCUCUACGUGAUUCAATT against Brd2,inactive: -0.0891
6,GCUAAACUUAAGUCCAUCATT against 2610524B01Rik,inactive: -1.34
7,GGUGAUUCCCGAUUAUGUGTT against Ercc1,inactive: -0.912
8,GCUGGUUACAUAAAGCUACTT against Mcart1,inactive: 1.24
9,GGAGUUCCAGCUGUUGCUGTT against 4832406C22,inactive: 0.744
10,GGACUCAGAAGUGAACAUATT against Spata7,inactive: -2.34
11,GGCUGUCUCAGAGAAGAAATT against Phxr1,inactive: -1.25
12,CCUCAAAAAUGGGUACGGUTT against Sfrs6,inactive: 0.674
13,GGACAUAACUGUUUUAACATT against 2810443J12Rik,inactive: -0.0451
14,GAAGAUUAUCCAUUGCCCGTT against Sprrl9,inactive: -0.235
15,CGCCAAUAUGGCCAUUGACTT against Zfpn1a2,inactive: -2.29
16,GGUACACUAUGAGGUCUGCTT against Traf2,inactive: -0.195
17,GCAGAUCCAAGAACAUAAGTT against Acrbp,inactive: 1.39
18,GCAAUUUGGAACACCUAAGTT against 2810485I05Rik,inactive: 0.611
19,GGUACAAGUUAAGGUCUACTT against V1rf4,inactive: -1.4
20,CGCCGCACAGUUAAUGCUUTT against D14Ertd209e,inactive: -0.108
21,GCUAACUAACGAGAUGAUUTT against T,inactive: 0.0615
22,GAGUUACUGGAAUUAAAGGTT against Nrg4,inactive: -0.0572
23,GGUGGGAUCGAGGAACAAATT against Ext2,inactive: 0.736
24,GCAUGAUACCAAUAGAGAATT against Pte2b,inactive: -0.719
25,CCAAUAAGGUCGUUUCUAUTT against Olfr589,inactive: -1.64
26,GGAUAGGGAUUGGAGAUAUTT against Obfc1,inactive: 0.148

# 6 entries from above in a different format.
row | Sequence | z-score
3 | CCUGGAGUGAAGUACAAAUTT against Zfp458 | inactive: 2.26
5 | CCCUCUCUACGUGAUUCAATT against Brd2 | inactive: -0.0891
7 | GGUGAUUCCCGAUUAUGUGTT against Ercc1 | inactive: -0.912
13 | GGACAUAACUGUUUUAACATT against 2810443J12Rik | inactive: -0.0451
18 | GCAAUUUGGAACACCUAAGTT against 2810485I05Rik | inactive: 0.611
23 | GGUGGGAUCGAGGAACAAATT against Ext2 | inactive: 0.736

# Next part

row,Sequence,z-score
1,GCAGUUGAGACAAUAUGUCTT against Trim31,inactive: 1.35
2,GGGUUGGAUAAGGAGAAAATT against Polk,inactive: -1.34
3,CCAGUGGUAUGAGGUUGAATT against Cpne3,inactive: 0.326
4,GGCUAUUUUUCAGGUUCCUTT against Olfr747,inactive: -1.01
5,CCCACAUAAAUAAGUUGGUTT against Olfr996,inactive: -2.59
6,CGUGAGCAGUCAAACCCAGTT against Il27ra,inactive: 0.605
7,GGUUGAGGACAUAAGACCCTT against 4932416A11Rik,inactive: 1.73
8,GGCCACCAUUUCUGAAAUCTT against Gpsn2,inactive: 0.287
9,CGGAUGUUCGUGUUAAAAATT against Plek,inactive: 0.211
10,GGAAAAAUAGGGUGUUUUGTT against Tdg,inactive: 3.39
11,CCCUGAUCAUGUUUUGUCCTT against Mrps24,inactive: 1.44
12,GGCGAGUUCUACAGUUACUTT against Cherp,inactive: -1.36
13,GGAAGUCAGUAAUCCUCUGTT against 2410146L05Rik,inactive: -1.38
14,CGAAUCACUGCUGUUCCAUTT against 5830411N06Rik,inactive: -0.301
15,GCUCCAAGCUUCUCUAUAGTT against V1rh7,inactive: 0.708
16,GGUCUCCUGAUGGAGAAGATT against Muc5b,inactive: -0.954
17,UGUUUGGGCCCAAAGGCUUTT against Crip1,inactive: 0.236
18,GGGAAGAAAUCAACGAUAATT against Gpa33,inactive: 0.809
19,GGUUCAGAAAUUUGUCAACTT against Nola2,inactive: 0.233
20,GAUCAAGGACCGGUACCUGTT against Lmo1,inactive: -0.211
21,GGUCAUUUUGCAUGAUGUCTT against Trpv3,inactive: 0.235
22,GGAGAAAUCCCUUCACGGUTT against Mas1,inactive: 0.0872
23,GGAAAAUCAACUUCACAAATT against Shox2,inactive: 0.348
24,GGAACAGGUAAAGAUCCCATT against Repin1,inactive: 0.768
25,GGGUGUAGUCCUGAAAGUATT against Arpc5l,inactive: 1.34
26,GGUGAUGAAGUGCGUCCUGTT against Chga,inactive: -0.577

# Three records drawn at random from the list so far, as already listed:
row,Sequence,z-score
22,GGCAGGAACUACCUCUUCATT against Sema5b,inactive: 0.335
5,CCCUCUCUACGUGAUUCAATT against Brd2,inactive: -0.0891
5,GGAGGUGCUAAGGAGAAGATT against Plagl2,inactive: -0.779

# (further entries)

row,Sequence,z-score
1,CGUGCUUUAUUGGAUCUGATT against Thedc1,inactive: 0.466
2,GCUUUAAUUGUGAAAGCACTT against C030011O14Rik,inactive: -0.849
3,GGACUUAUCAAGCUGGUUUTT against Rps25,inactive: -2.47
4,CGUGGCUCACAAUAAAUGCTT against Adn,inactive: 0.527
5,GGCUACGUGUCAAUAGACATT against Pscd2,inactive: -0.455
6,GGAAUAGGGAGGUAACCAGTT against Olfr1394,inactive: -0.841
7,CCUGAGAUGUUUCAACUGCTT against Plekha3,inactive: -0.207
8,GGAGGACGUAACUAAAUCATT against Mbldc1,inactive: 0.913
9,GCUCACCAAUGAAAUUAAUTT against Xpo7,inactive: 1.19
10,GCUAAGAAACGGAAUUUGGTT against Adam7,inactive: -0.312
11,GGACUCAAGCAGAUGGUAUTT against 1700018B08Rik,inactive: 0.129
12,CCGGUGAACCCUAUAAAUATT against AI324046,inactive: 1.39
13,GCUACCUGUAUUUAUCUCCTT against Centa1,inactive: -0.219
14,GGCUUGGUGAGCUACCUACTT against 2310038K02Rik,inactive: 1.66
15,GGAGAAAGCUCGAAAAUGGTT against Prpf8,inactive: -1.86
16,GGUUUCCUGAAGUUUUCAATT against Gnaz,inactive: -0.422
17,GCAGCAUCCUGUUUCAUUGTT against 6430573F11Rik,inactive: 0.228
18,GGGCAUCCUGGAUCAUCAUTT against Nalp6,inactive: -0.497
19,GCCAAUAUUUGUUUUUGAGTT against C130037N17Rik,inactive: 0.747
20,GCAUGAAUUUUGCACGGACTT against Rad18,inactive: 0.165
21,GGUUCAUCUUCAGCCAUCCTT against E030027H19Rik,inactive: -2.61
22,GUCUCUCUUUUAACAUGCUTT against Ceacam13,inactive: 2.49
23,GGGUUUCCAAGAAGGAAGCTT against AA408296,inactive: 0.738
24,GGCUGACUACAAUUUAAUCTT against Slitrk4,inactive: 0.0423
25,GGCCAUGAAUCUUGUUGGGTT against Sgne1,inactive: -1.47
26,GGUGGUGUCGGAUUUGAUATT against D10Wsu52e,inactive: -1.86
